The supplement of paper PMC7661543
Differences between knockout arms are mostly noise.

Test system: MDA-MB-231
Assay: relative cell number vs DMSO control (72 h) (% of DMSO); higher = less growth inhibition (more cells)
Protocol: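 QMAP-Seq: a pool of 5 breast cancer cell lines (ZR-75-1, SKBR3, HCC-38, MDA-MB-231, BT-20), each carrying 12 doxycycline-inducible Cas9 sgRNA perturbations (11 knockouts plus non-targeting sgNT), was treated with compounds for 72 h at four 10-fold doses (10 nM-10 uM or 1 nM-1 uM range). Barcodes were amplified and sequenced, and cell number was interpolated from 293T spike-in standard curves. The result is expressed as % of the median of DMSO wells. Two biological replicates.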

COc1cc2nccc(Oc3ccc(NC(=O)Nc4cc(C)on4)c(Cl)c3)c2cc1OC [Tivozanib]
Settings	relative cell number
sgRNA knockout: sgATF3, 10 nM	96.5
sgRNA knockout: sgATF3, 100 nM	105
sgRNA knockout: sgATF3, 1000 nM	114
sgRNA knockout: sgATF3, 10000 nM	49.9
sgRNA knockout: sgATF4, 10 nM	68.6
sgRNA knockout: sgATF4, 100 nM	107
sgRNA knockout: sgATF4, 1000 nM	108
sgRNA knockout: sgATF4, 10000 nM	42.8
sgRNA knockout: sgATF6, 10 nM	81.9
sgRNA knockout: sgATF6, 100 nM	95.7
sgRNA knockout: sgATF6, 1000 nM	104
sgRNA knockout: sgATF6, 10000 nM	50.7
sgRNA knockout: sgATG7, 10 nM	100
sgRNA knockout: sgATG7, 100 nM	104
sgRNA knockout: sgATG7, 1000 nM	97.3
sgRNA knockout: sgATG7, 10000 nM	47.16
sgRNA knockout: sgERN1, 10 nM	83.6
sgRNA knockout: sgERN1, 100 nM	124
sgRNA knockout: sgERN1, 1000 nM	83
sgRNA knockout: sgERN1, 10000 nM	52.8
sgRNA knockout: sgHSF1, 10 nM	99.5
sgRNA knockout: sgHSF1, 100 nM	106
sgRNA knockout: sgHSF1, 1000 nM	120
sgRNA knockout: sgHSF1, 10000 nM	55.6
sgRNA knockout: sgHSF2, 10 nM	86.3
sgRNA knockout: sgHSF2, 100 nM	92.2
sgRNA knockout: sgHSF2, 1000 nM	102
sgRNA knockout: sgHSF2, 10000 nM	50.4
sgRNA knockout: sgKEAP1, 10 nM	105
sgRNA knockout: sgKEAP1, 100 nM	109
sgRNA knockout: sgKEAP1, 1000 nM	127
sgRNA knockout: sgKEAP1, 10000 nM	59.1
sgRNA knockout: sgNFE2L2, 10 nM	90.9
sgRNA knockout: sgNFE2L2, 100 nM	102
sgRNA knockout: sgNFE2L2, 1000 nM	104
sgRNA knockout: sgNFE2L2, 10000 nM	53.6
sgRNA knockout: sgSLC35F2, 10 nM	72.7
sgRNA knockout: sgSLC35F2, 100 nM	73.32
sgRNA knockout: sgSLC35F2, 1000 nM	122
sgRNA knockout: sgSLC35F2, 10000 nM	43.8
sgRNA knockout: sgXBP1, 10 nM	82.1
sgRNA knockout: sgXBP1, 100 nM	82.6
sgRNA knockout: sgXBP1, 1000 nM	92.3
sgRNA knockout: sgXBP1, 10000 nM	56.52

CN/C(=N\CCSCc1nc[nH]c1C)NC#N [Cimetidine]
Settings	relative cell number
sgRNA knockout: sgATF3, 10 nM	120
sgRNA knockout: sgATF3, 100 nM	95.3
sgRNA knockout: sgATF3, 1000 nM	111
sgRNA knockout: sgATF3, 10000 nM	109
sgRNA knockout: sgATF4, 10 nM	119
sgRNA knockout: sgATF4, 100 nM	109
sgRNA knockout: sgATF4, 1000 nM	119
sgRNA knockout: sgATF4, 10000 nM	135
sgRNA knockout: sgATF6, 10 nM	78.6
sgRNA knockout: sgATF6, 100 nM	116
sgRNA knockout: sgATF6, 1000 nM	92.4
sgRNA knockout: sgATF6, 10000 nM	93.2
sgRNA knockout: sgATG7, 10 nM	107
sgRNA knockout: sgATG7, 100 nM	98.7
sgRNA knockout: sgATG7, 1000 nM	80.8
sgRNA knockout: sgATG7, 10000 nM	115
sgRNA knockout: sgERN1, 10 nM	123
sgRNA knockout: sgERN1, 100 nM	103
sgRNA knockout: sgERN1, 1000 nM	100
sgRNA knockout: sgERN1, 10000 nM	128
sgRNA knockout: sgHSF1, 10 nM	96.7
sgRNA knockout: sgHSF1, 100 nM	111
sgRNA knockout: sgHSF1, 1000 nM	89.2
sgRNA knockout: sgHSF1, 10000 nM	107
sgRNA knockout: sgHSF2, 10 nM	83.8
sgRNA knockout: sgHSF2, 100 nM	104
sgRNA knockout: sgHSF2, 1000 nM	91
sgRNA knockout: sgHSF2, 10000 nM	99.9
sgRNA knockout: sgKEAP1, 10 nM	116
sgRNA knockout: sgKEAP1, 100 nM	98.6
sgRNA knockout: sgKEAP1, 1000 nM	111
sgRNA knockout: sgKEAP1, 10000 nM	101
sgRNA knockout: sgNFE2L2, 10 nM	112
sgRNA knockout: sgNFE2L2, 100 nM	109
sgRNA knockout: sgNFE2L2, 1000 nM	97.5
sgRNA knockout: sgNFE2L2, 10000 nM	92.8
sgRNA knockout: sgSLC35F2, 10 nM	97.2
sgRNA knockout: sgSLC35F2, 100 nM	106
sgRNA knockout: sgSLC35F2, 1000 nM	90.5
sgRNA knockout: sgSLC35F2, 10000 nM	95.3
sgRNA knockout: sgXBP1, 10 nM	102
sgRNA knockout: sgXBP1, 100 nM	96.3
sgRNA knockout: sgXBP1, 1000 nM	83.9
sgRNA knockout: sgXBP1, 10000 nM	112

CC(C)(C)c1cnc(CSc2cnc(NC(=O)C3CCNCC3)s2)o1 [SNS032]
Settings	relative cell number
sgRNA knockout: sgATF3, 10 nM	96.3
sgRNA knockout: sgATF3, 100 nM	79.1
sgRNA knockout: sgATF3, 1000 nM	9.69
sgRNA knockout: sgATF3, 10000 nM	20.9
sgRNA knockout: sgATF4, 10 nM	84.2
sgRNA knockout: sgATF4, 100 nM	72.9
sgRNA knockout: sgATF4, 1000 nM	15.8
sgRNA knockout: sgATF4, 10000 nM	20.6
sgRNA knockout: sgATF6, 10 nM	94.99
sgRNA knockout: sgATF6, 100 nM	62
sgRNA knockout: sgATF6, 1000 nM	18.5
sgRNA knockout: sgATF6, 10000 nM	21.3
sgRNA knockout: sgATG7, 10 nM	85.4
sgRNA knockout: sgATG7, 100 nM	63.2
sgRNA knockout: sgATG7, 1000 nM	12.1
sgRNA knockout: sgATG7, 10000 nM	14
sgRNA knockout: sgERN1, 10 nM	112
sgRNA knockout: sgERN1, 100 nM	56.6
sgRNA knockout: sgERN1, 1000 nM	14.2
sgRNA knockout: sgERN1, 10000 nM	17.1
sgRNA knockout: sgHSF1, 10 nM	92.2
sgRNA knockout: sgHSF1, 100 nM	78.6
sgRNA knockout: sgHSF1, 1000 nM	13.7
sgRNA knockout: sgHSF1, 10000 nM	18.3
sgRNA knockout: sgHSF2, 10 nM	82.1
sgRNA knockout: sgHSF2, 100 nM	68.7
sgRNA knockout: sgHSF2, 1000 nM	14.4
sgRNA knockout: sgHSF2, 10000 nM	19.1
sgRNA knockout: sgKEAP1, 10 nM	112
sgRNA knockout: sgKEAP1, 100 nM	64.5
sgRNA knockout: sgKEAP1, 1000 nM	16.2
sgRNA knockout: sgKEAP1, 10000 nM	15.6
sgRNA knockout: sgNFE2L2, 10 nM	111
sgRNA knockout: sgNFE2L2, 100 nM	64.2
sgRNA knockout: sgNFE2L2, 1000 nM	10.8
sgRNA knockout: sgNFE2L2, 10000 nM	16.2
sgRNA knockout: sgSLC35F2, 10 nM	105
sgRNA knockout: sgSLC35F2, 100 nM	68.8
sgRNA knockout: sgSLC35F2, 1000 nM	11.3
sgRNA knockout: sgSLC35F2, 10000 nM	13.5
sgRNA knockout: sgXBP1, 10 nM	100
sgRNA knockout: sgXBP1, 100 nM	61.9
sgRNA knockout: sgXBP1, 1000 nM	13.7
sgRNA knockout: sgXBP1, 10000 nM	15.5
